In US20110104191A1:
No constants are given. Whether binding was seen depends on the method and setting. Binding calls can cover weak binding; strength is not graded here.

Biological target: Salmonella typhi OmpF (Salmonella typhi)
Test: phage display panning (Ph.D-7 library, 3 rounds) on purified porin coated on ELISA wells

binding	Binder
binds	FHENWPS [OmpF affinity peptide FHENWPS]
binds	FHEFWPT [OmpF affinity peptide FHEFWPT]
